Reference: PubChem BioAssay AID2685 (National Center for Advancing Translational Sciences (NCATS), 2010)
About 2,100 (0.66%) of roughly 320,000 compounds were called active. This list was built around the results that the source calls inconclusive (neither active nor inactive); the mix of calls is not that of the screen. Calls come from the whole dose curve; as a rule, active = well fitted inhibition curve with a large enough effect in the signal ratio, with a control signal flat (not every such curve was filed as active); inconclusive = small, poorly fitted or top-dose-only effect, or effect the other way, or a change in a side signal; inactive = flat fitted curve, though single readings scatter; the % refers to the signal ratio. Potencies beside an inconclusive call are fits to weak or partial responses and may not hold up.

Experiment: qHTS Assay for Lipid Storage Modulators in Drosophila S3 Cells
Details: BODIPY lipid droplet fluorescence, 18-24 h, cells fed with added oleic acid; lipid storage change, negative = inhibition: at 46.1 µM (top of the series) unless noted
How it was run: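 Drosophila S3 cells loaded with oleic acid (400 uM, as added) and compounds at several concentrations; lipid droplets imaged by 488-nm laser-scanning cytometry, 500–530 nm intensity and object ratio to cell channel. Percent activity normalized to 20 uM Triacsin C.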
% is set by controls: 0 for no effect and ±100 for the full control effect; potency is the fitted concentration of half-maximal effect.

Row | SMILES | lipid storage change, negative = inhibition | Potency
1 | Cc1cc2cc(CNC(=O)c3ccc(Br)o3)ccc2n1C | inconclusive: -19.7% | 
2 | Oc1cccc(N2Cc3ccccc3C2)c1 | inactive | 
3 | CCCCC(=O)Nc1ccc2c(c1)OCCO2 | inconclusive: -45.6% | 
4 | CCc1nnc(NS(=O)(=O)c2ccc(N/C=C/C(=O)c3ccc(C)cc3)cc2)s1 | inconclusive: -7.18% | 
5 | COC(=O)c1sc2ccccc2c1NC(=O)c1ccc(S(=O)(=O)N2CCCCC2)cc1 | inconclusive: 30.6% | 
6 | Cc1cc(C(=O)OCC(=O)N(C)C2CCS(=O)(=O)C2)c(C)n1-c1ccccc1 (centres undefined) | inconclusive: 14.7% | 
7 | O=C(CCl)N1CCN(CC(=O)N2CCCC2)CC1 |  | inconclusive: 4.61 µM [activator, full curve, poor fit]
8 | CNC(=O)c1nc(C)n(-c2cc(Cl)cc(Cl)c2)n1 | inconclusive: 21.7% | 
9 | CSc1ncccc1C(=O)OCC(=O)c1ccc(S(=O)(=O)N2CCCCC2)cc1 | inconclusive | 
10 | CNC(=O)c1ccc(=O)n(Cc2cccc(C(F)(F)F)c2)c1 | inconclusive: -2.29% | 
11 | COc1cccc(OC)c1NC(=O)CN1CCN(C)CC1 | inconclusive: -30% | 
12 | Cc1cc(C)n(-c2ccc(NC(=O)C3CCCCN3C(=O)c3cc(C)oc3C)cc2)n1 (centres undefined) | inconclusive: 65% | 
13 | C#CCNc1nc(C(C)C)nc2c1nnn2Cc1ccccc1F |  | inconclusive: 0.82 µM [activator, full curve, poor fit]
14 | CCN(CC)c1nc2c(c(=O)[nH]c(=O)n2C)n1CCOc1ccccc1 | inconclusive: -43.8% | 
15 | CC(C)[C@H](NS(=O)(=O)c1ccc2c(c1)OCCO2)C(=O)OCC(=O)Nc1cc(Cl)ccc1Cl | inconclusive: 40.2% | 
16 | CC1=Nc2cc(C(=O)NCCCN3CCOCC3)ccc2Sc2c(C)ccc(C)c21 | inconclusive: 33.6% | 
17 | O=C(NC1CCN(S(=O)(=O)c2cccc(Cl)c2)CC1)C1CCCCC1 | inconclusive: -26.4% | 
18 | Cc1ccc(C(=O)C2=C(O)C(=O)N(Cc3cccnc3)C2c2ccc(Cl)c(Cl)c2)o1 (centres undefined) | inconclusive: -16.2% | 
19 | O=[N+]([O-])c1cc(N=Nc2ccc3ccccc3c2)ccc1O | inactive | 
20 | CCc1ccc(NC(=O)COC(=O)C2(c3ccc(Cl)cc3)CCCC2)cc1 |  | inconclusive: 5.17 µM [falling, partial curve]
21 | COc1ccc(/C(N)=N/OC(=O)Cc2ccc(C)cc2)cc1 | inconclusive: 55.6% | 
22 | Cc1noc2nc(-c3cccs3)cc(-c3nnc4n3CCCCC4)c12 | inconclusive: -1.78% | 
23 | COC(=O)CN1C(=O)[C@H]2[C@@H](C3CC3)N3C(=O)CN(Cc4ccccn4)C(=O)[C@@]3(Cc3ccccc3)[C@H]2C1=O | inconclusive: 42.6% | 
24 | CC(=O)Nc1ccc(S(=O)(=O)NCCC(=O)OCc2ccccc2F)cc1 |  | inconclusive: 29.1 µM [falling, single point]
25 | COc1ccccc1CN(C)C(=O)c1ccc(S(=O)(=O)NCc2ccco2)cc1 | inconclusive: 1.87% | 

Of the compounds above, two contain a thiophene ring, fused or not.
Row | SMILES | lipid storage change, negative = inhibition | Potency
5 | COC(=O)c1sc2ccccc2c1NC(=O)c1ccc(S(=O)(=O)N2CCCCC2)cc1 | inconclusive: 30.6% | 
22 | Cc1noc2nc(-c3cccs3)cc(-c3nnc4n3CCCCC4)c12 | inconclusive: -1.78% | 

Following part:

Row | SMILES | lipid storage change, negative = inhibition | Potency
26 | O=C(CSc1ncnc2c1cnn2CCc1ccccc1)Nc1cccc(C(F)(F)F)c1 |  | inconclusive: 3.26 µM [activator, partial curve]
27 | CCOC(=O)C1=C(C)N2C(=C(C#N)[C@@H]1c1ccc(C(=O)OC)cc1)SC[C@@]2(O)C(C)(C)C |  | inconclusive: 0.13 µM [activator, full curve, poor fit]
28 | O=C(CCS(=O)(=O)c1ccc(Cl)cc1)NCCC1=CCCCC1 | inconclusive: -0.457% | 
29 | CC(C)(C)OC(=O)N[C@@H](Cc1ccccc1)c1nnc(SCC(=O)c2ccc(Cl)cc2)o1 | inconclusive: 205% | 
30 | C/C(CCN1CCc2nc(-c3ccccc3)c(-c3ccccc3)cc2C1)=N\OC[C@@H](C)[C@H](OCc1ccccc1)C(C)C | inconclusive: -6.66% | 
31 | COc1ccc(NC(=S)N(CCC(C)C)C2CCN(C(C)=O)CC2)cc1 | inconclusive: -2.82% | 
32 | CC(=O)c1ccc(C(=O)NC2CCCN(Cc3ccccc3F)C2)cc1 (centres undefined) | inconclusive: -7.78% | 
33 | Cc1ccccc1OCCC(=O)OCC(=O)Nc1c(F)cccc1F | inconclusive | 
34 | COc1cc(CN2CCCC(C(=O)Nc3cccc(-n4cccn4)c3)C2)ccc1F (centres undefined) | inconclusive: -63.3% | 
35 | Cc1oc2cc3oc(=O)c(CC(=O)N[C@@H](C)C(=O)NC(Cc4ccc(Cl)cc4)C(=O)O)c(C)c3cc2c1C (some centres undefined) | inconclusive: -11.4% | 
36 | COc1cc(CNC(=O)c2cccc(COc3ccc(Cl)cc3)c2)cc(OC)c1 | inconclusive: -75.3% | 
37 | CC(=O)Nc1c([N+](=O)[O-])cc2[nH]c(=O)[nH]c2c1[N+](=O)[O-] | inconclusive: -34.9% | 
38 | CN(CCOc1ccc(Cl)cc1)CC(O)c1ccccc1 (centres undefined) | inconclusive: 14% | 
39 | Cc1cccc(C(=O)Nc2cccc(C(=O)NC3CCCC3)c2)c1 | inconclusive: -23.4% | 
40 | O=C(NC1CC1)C1=C[C@@H](c2c[nH]c3ccccc23)C[C@@H](OCCCCO)O1 |  | inconclusive: 32.6 µM [falling, single point]
41 | Cn1c(SCC(=O)NNC(=S)Nc2ccccc2)nnc1-c1ccncc1 | inconclusive: -3.34% | 
42 | O=C(O)c1ccccc1NSc1ccccc1[N+](=O)[O-] | inconclusive: -17.3% | 
43 | Cc1cnc(C(=O)OCC(=O)N2c3ccccc3CC2C)cn1 (centres undefined) | inconclusive: 27.8% | 
44 | O=C(COC(=O)CC12CC3CC(CC(C3)C1)C2)Nc1cccnc1Cl | inconclusive: -41% [at 0.00295 µM] | 
45 | CC(C)(C)c1ccc(OCCC(=O)NCCc2ccc(S(N)(=O)=O)cc2)cc1 |  | inconclusive: 2.06 µM [falling, single point]
46 | CCc1ccc(OCC(=O)N/N=C(\C)c2ccc(OC(F)F)cc2)cc1 | inconclusive: -4.18% | 
47 | Cc1nnsc1C(=O)Nc1ccc(S(=O)(=O)N2CCCCC2C)cc1 (centres undefined) |  | inconclusive: 1.03 µM [activator, partial curve, poor fit]
48 | O=C(NC1CCCC1)c1cccc(Cl)c1 | inconclusive: 8.19% | 
49 | CCOC(=O)c1cnc(SCC(=O)N2CCC(C(N)=O)CC2)nc1N | inconclusive: 26.5% | 
